Results: patent publication US10344330B2, “Glatiramer acetate response biomarker mRNA potency assay” (Mylan Inc., priority 2013, dated 2019)

Columns and labels:
Format in all cases: cell-based
[1] = test system: Gapdh mRNA in CD-1 mouse spleen cells; assay: Reference gene Gapdh mRNA (CT) in ConA-stimulated CD-1 mouse spleen cells (Example VI); conditions: CD-1 spleen cells, ConA 0.01-3.0 μg/mL, 6 hr
[2] = test system: Cyc1 mRNA in CD-1 mouse spleen cells; assay: Reference gene Cyc1 mRNA (CT) in ConA-stimulated CD-1 mouse spleen cells (Example VI); conditions: 6 hr
[3] = test system: B2m mRNA in CD-1 mouse spleen cells; assay: Reference gene B2m mRNA (CT) in ConA-stimulated CD-1 mouse spleen cells (Example VI); conditions: CD-1 spleen cells, ConA 0.01-3.0 μg/mL, 6 hr
[4] = test system: Hprt mRNA in CD-1 mouse spleen cells; assay: Reference gene Hprt mRNA (CT) in ConA-stimulated CD-1 mouse spleen cells (Example VI); conditions: 6 hr
[5] = test system: Rp113a mRNA in CD-1 mouse spleen cells; assay: Reference gene Rp113a mRNA (CT) in ConA-stimulated CD-1 mouse spleen cells (Example VI); conditions: CD-1 spleen cells, ConA 0.01-3.0 μg/mL, 6 hr
[6] = test system: β-Actin (ActB) mRNA in CD-1 mouse spleen cells; assay: Reference gene β-Actin mRNA (CT) in ConA-stimulated CD-1 mouse spleen cells (Example VI); conditions: 6 hr
[7] = test system: Atp5b mRNA in CD-1 mouse spleen cells; assay: Reference gene Atp5b mRNA (CT) in ConA-stimulated CD-1 mouse spleen cells (Example VI); conditions: CD-1 spleen cells, ConA 0.01-3.0 μg/mL, 6 hr
[8] = test system: Ppia mRNA in CD-1 mouse spleen cells; assay: Reference gene Ppia mRNA (CT) in ConA-stimulated CD-1 mouse spleen cells (Example VI); conditions: CD-1 spleen cells, ConA 0.01-3.0 μg/mL, 6 hr
[9] = CD-1 spleen cells responding to ConA stimulation
[10] = CD-1 spleen cells, ConA 0.01-3.0 μg/mL

Concanavalin A [ConA, reference compound]
Gapdh Maximum (CT) [1]: 28.9 CT | Gapdh Mean (CT) [1]: 26.8 CT | Gapdh Minimum (CT) [1]: 25.3 CT | Cyc1 mean CT value [2, 9]: > 29 | Cyc1 Maximum (CT) [2, 10]: 31.9 CT | Cyc1 Mean (CT) [2, 10]: 29.1 CT | Cyc1 Minimum (CT) [2, 10]: 26.6 CT | B2m Maximum (CT) [3]: 27.0 CT | B2m Mean (CT) [3]: 25.4 CT | B2m Minimum (CT) [3]: 23.3 CT | Hprt mean CT value [4, 9]: > 29 | Hprt Maximum (CT) [4, 10]: 34.7 CT | Hprt Mean (CT) [4, 10]: 31.6 CT | Hprt Minimum (CT) [4, 10]: 29.1 CT | Rp113a Maximum (CT) [5]: 28.2 CT | Rp113a Mean (CT) [5]: 26.0 CT | Rp113a Minimum (CT) [5]: 24.1 CT | ActB mean CT value [6, 9]: 22.8 | ActB Maximum (CT) [6, 10]: 24.6 CT | ActB Mean (CT) [6, 10]: 22.8 CT | ActB Minimum (CT) [6, 10]: 20.8 CT | Atp5b Maximum (CT) [7]: 29.3 CT | Atp5b Mean (CT) [7]: 26.7 CT | Atp5b Minimum (CT) [7]: 24.0 CT | Ppia Maximum (CT) [8]: 30.3 CT | Ppia Mean (CT) [8]: 26.4 CT | Ppia Minimum (CT) [8]: 23.4 CT
